No constants are given. Whether binding was seen depends on the method and setting. Binding seen in cells or lysates may run through a third protein. A yes stands for co-enrichment or nearness to the bait. Other partners may have been found. Where a sequence is shown, tags or fusion partners need not be part of it.
target: T1, SH3RF2-3× flag (mouse (endogenous in striatum of knock-in mice)) (UniProt Q8BZT2); assay: affinity purification with mass spectrometry; striatal tissue of P42 Sh3rf2-3× flag male mice against WT littermates; 200 μg of proteins with 20 μL Anti-FLAG M2 affinity gel at 4 °C overnight; SDS-PAGE, in-gel trypsin digest, LTQ Orbitrap Elite; hits unique to the knock-in or with PSM fold change ≥ 2
T1 sequence: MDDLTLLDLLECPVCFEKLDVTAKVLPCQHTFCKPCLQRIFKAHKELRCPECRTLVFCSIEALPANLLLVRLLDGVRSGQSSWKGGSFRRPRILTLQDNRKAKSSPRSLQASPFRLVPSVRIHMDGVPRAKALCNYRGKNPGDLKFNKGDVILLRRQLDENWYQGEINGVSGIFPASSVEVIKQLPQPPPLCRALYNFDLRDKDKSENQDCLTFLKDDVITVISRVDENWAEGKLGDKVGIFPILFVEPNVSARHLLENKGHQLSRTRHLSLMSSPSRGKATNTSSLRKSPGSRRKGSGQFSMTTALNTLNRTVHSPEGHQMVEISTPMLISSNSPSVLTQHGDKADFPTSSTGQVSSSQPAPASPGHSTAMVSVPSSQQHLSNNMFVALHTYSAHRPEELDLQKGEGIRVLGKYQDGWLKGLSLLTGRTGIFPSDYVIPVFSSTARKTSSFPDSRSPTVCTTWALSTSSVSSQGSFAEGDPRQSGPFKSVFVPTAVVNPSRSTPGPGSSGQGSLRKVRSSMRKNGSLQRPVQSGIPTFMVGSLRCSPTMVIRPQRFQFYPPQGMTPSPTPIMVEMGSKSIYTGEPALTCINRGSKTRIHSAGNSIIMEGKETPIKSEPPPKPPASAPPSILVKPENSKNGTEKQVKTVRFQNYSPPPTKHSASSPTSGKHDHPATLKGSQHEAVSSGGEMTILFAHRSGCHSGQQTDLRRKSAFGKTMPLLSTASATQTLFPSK

Sequences of proteins named here, by UniProt entry; tags and fusion partners are left off.
UniProt P62715: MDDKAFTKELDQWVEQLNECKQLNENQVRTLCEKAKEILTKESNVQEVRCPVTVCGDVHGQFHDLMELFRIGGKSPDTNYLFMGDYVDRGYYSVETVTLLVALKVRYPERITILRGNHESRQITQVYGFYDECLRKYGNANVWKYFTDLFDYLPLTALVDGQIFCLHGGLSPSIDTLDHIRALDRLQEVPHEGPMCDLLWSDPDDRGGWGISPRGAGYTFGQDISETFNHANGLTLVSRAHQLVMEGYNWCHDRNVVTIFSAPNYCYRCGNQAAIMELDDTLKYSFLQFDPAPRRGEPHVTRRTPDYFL
UniProt P63087: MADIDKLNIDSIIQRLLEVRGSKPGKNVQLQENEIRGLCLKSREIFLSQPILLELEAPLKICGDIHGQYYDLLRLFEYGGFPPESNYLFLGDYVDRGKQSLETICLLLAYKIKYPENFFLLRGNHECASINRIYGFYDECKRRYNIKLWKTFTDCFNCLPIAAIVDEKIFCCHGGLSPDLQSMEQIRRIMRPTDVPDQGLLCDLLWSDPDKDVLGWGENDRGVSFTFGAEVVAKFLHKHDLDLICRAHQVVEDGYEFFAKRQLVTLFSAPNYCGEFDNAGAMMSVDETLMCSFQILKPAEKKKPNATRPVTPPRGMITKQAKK

binding	Substance
binds	PKC (mouse (endogenous in striatum)) (enzyme)
binds	PPP2CB (PP2A) (from UniProt P62715 1-309) (enzyme)
binds	PP1 catalytic subunit gamma (PPP1CC) (from UniProt P63087 1-323) (enzyme)

— publication PMC12485048
